Measured values as given in patent US20160060307A1 (KYUNGPOOK NATIONAL UNIVERSITY INDUSTRY ACADEMIC COOPERATION …, published 2016).

B1: FTL-RGD-AP1: ferritin having inserted RGD and AP1 peptides (designed binder, not shown: small tags and cut ends)
chain: MRGDGGGSGMSSQIRQNYSTDVEAAVNSLVNLYLQASYTYLSLGFYFDRDDVALEGVSHFFRELAEEKREGYERLLKMQNQRGGRALFQDIKKPAEDEWGKTPDAMKAAMALEKKLNQALLDLHALGSARTDPHLCDFLETHFLDEEVKLIKKMGDHLTNLHRGSRKRLDRNGGPEAGLGEYLFERLTLKHD
modifications: One monomer is given; it assembles into a 24-mer ferritin cage.
B2: FTL-GRGDSP-AP1: ferritin having inserted GRGDSP and AP1 peptides (designed binder, not shown: small tags and cut ends)
chain: MGRGDSPGGGSGMSSQIRQNYSTDVEAAVNSLVNLYLQASYTYLSLGFYFDRDDVALEGVSHFFRELAEEKREGYERLLKMQNQRGGRALFQDIKKPAEDEWGKTPDAMKAAMALEKKLNQALLDLHALGSARTDPHLCDFLETHFLDEEVKLIKKMGDHLTNLHRGSRKRLDRNGGPEAGLGEYLFERLTLKHD
modifications: One monomer is given; it assembles into a 24-mer ferritin cage.

Experiments:
[1] = molecular target: integrin alphavbeta3 protein; experiment: SPR, integrin alphavbeta3 immobilised
[2] = molecular target: integrin alphavbeta3 protein; experiment: SPR, integrin alphavbeta3 protein immobilised on carboxymethyl dextran chip, ferritin in flow, 0.651-5.208 nM
[3] = molecular target: integrin alphavbeta3 protein; experiment: SPR, integrin alphavbeta3 protein immobilised on carboxymethyl dextran chip, ferritin in flow, 0.651-10.416 nM

| Binder | binding [1] | binding [2] | binding [3] |
| --- | --- | --- | --- |
| B1 | binds | binds | – |
| B2 | binds | – | binds |

These are yes or no findings as the source states them, for the method shown. Binding can be weak; no strength is given.
